From PMC8748658 come the findings set out here.

Amino acid sequences for entries named in this document (tags omitted). Residues count along the entry.
UniProt P11627, residues 20-1260: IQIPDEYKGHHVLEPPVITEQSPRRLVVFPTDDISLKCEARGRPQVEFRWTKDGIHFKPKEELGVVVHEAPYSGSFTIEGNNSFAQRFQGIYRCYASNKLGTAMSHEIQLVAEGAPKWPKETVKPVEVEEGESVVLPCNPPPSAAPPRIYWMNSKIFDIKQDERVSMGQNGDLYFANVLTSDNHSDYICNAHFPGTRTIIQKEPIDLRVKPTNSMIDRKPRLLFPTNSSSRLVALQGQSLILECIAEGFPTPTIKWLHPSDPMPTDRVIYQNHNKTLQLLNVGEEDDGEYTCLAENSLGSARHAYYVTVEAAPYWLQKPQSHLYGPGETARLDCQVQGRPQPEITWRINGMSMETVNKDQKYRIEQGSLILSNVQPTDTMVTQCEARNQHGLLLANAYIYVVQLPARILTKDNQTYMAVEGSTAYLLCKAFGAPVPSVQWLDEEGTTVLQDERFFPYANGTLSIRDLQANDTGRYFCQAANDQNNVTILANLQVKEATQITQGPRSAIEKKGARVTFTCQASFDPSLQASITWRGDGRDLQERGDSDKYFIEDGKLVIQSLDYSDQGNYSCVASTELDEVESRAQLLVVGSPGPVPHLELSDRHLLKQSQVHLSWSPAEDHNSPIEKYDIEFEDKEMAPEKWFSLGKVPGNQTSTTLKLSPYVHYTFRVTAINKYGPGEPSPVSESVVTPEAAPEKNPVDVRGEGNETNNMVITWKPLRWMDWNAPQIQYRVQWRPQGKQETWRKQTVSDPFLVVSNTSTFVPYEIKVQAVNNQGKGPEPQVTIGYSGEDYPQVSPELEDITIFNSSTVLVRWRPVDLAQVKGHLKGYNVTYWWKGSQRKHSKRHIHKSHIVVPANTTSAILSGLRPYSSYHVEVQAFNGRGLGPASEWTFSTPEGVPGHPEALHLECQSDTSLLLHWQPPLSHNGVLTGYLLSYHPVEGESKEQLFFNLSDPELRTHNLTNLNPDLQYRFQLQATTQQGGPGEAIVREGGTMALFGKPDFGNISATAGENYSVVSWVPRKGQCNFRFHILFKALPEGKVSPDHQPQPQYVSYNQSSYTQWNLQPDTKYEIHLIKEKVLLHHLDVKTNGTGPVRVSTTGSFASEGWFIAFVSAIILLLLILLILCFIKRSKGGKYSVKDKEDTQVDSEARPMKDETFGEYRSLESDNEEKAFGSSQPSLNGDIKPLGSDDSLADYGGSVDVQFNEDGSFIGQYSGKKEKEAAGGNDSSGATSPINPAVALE

These are yes or no findings as the source states them, for the method shown. Binding seen in cells or lysates may run through a third protein. These calls come from enrichment with a bait or labelling near it, and not all partners need be listed.

This assay concerns the target cell adhesion molecule L1 (mouse (endogenous in brain)) (UniProt P11627). Nature of the assay: affinity purification with mass spectrometry; co-immunoprecipitation of L1 from 5- to 7-day-old wild-type mouse brain, mass spectrometry of the precipitate.

B1: topoisomerase 1 (Top1) (enzyme, UniProt Q04750 1-767)
chain: MSGDHLHNDSQIEADFRLNDSHKHKDKHKDREHRHKEHKKDKDKDREKSKHSNSEHKDSEKKHKEKEKTKHKDGSSEKHKDKHKDRDKERRKEEKIRAAGDAKIKKEKENGFSSPPRIKDEPEDDGYFAPPKEDIKPLKRLRDEDDADYKPKKIKTEDIKKEKKRKSEEEEDGKLKKPKNKDKDKKVAEPDNKKKKPKKEEEQKWKWWEEERYPEGIKWKFLEHKGPVFAPPYEPLPESVKFYYDGKVMKLSPKAEEVATFFAKMLDHEYTTKEIFRKNFFKDWRKEMTNDEKNTITNLSKCDFTQMSQYFKAQSEARKQMSKEEKLKIKEENEKLLKEYGFCVMDNHRERIANFKIEPPGLFRGRGNHPKMGMLKRRIMPEDIIINCSKDAKVPSPPPGHKWKEVRHDNKVTWLVSWTENIQGSIKYIMLNPSSRIKGEKDWQKYETARRLKKCVDKIRNQYREDWKSKEMKVRQRAVALYFIDKLALRAGNEKEEGETADTVGCCSLRVEHINLHPELDGQEYVVEFDFPGKDSIRYYNKVPVEKRVFKNLQLFMENKQPEDDLFDRLNTGILNKHLQDLMEGLTAKVFRTYNASITLQQQLKELTAPDENVPAKILSYNRANRAVAILCNHQRAPPKTFEKSMMNLQSKIDAKKDQLADARRDLKSAKADAKVMKDAKTKKVVESKKKAVQRLEEQLMKLEVQATDREENKQIALGTSKLNYLDPRITVAWCKKWGVPIEKIYNKTQREKFAWAIDMTDEDYEF
For the molecule B1, the binding result is on record as “binds”.
